Experimental data: publication PMC7862700
This is one part of the list. The source does not settle which construct or isoform was used.

Molecular target: T1, ETS1 (UniProt P14921)
T1 sequence: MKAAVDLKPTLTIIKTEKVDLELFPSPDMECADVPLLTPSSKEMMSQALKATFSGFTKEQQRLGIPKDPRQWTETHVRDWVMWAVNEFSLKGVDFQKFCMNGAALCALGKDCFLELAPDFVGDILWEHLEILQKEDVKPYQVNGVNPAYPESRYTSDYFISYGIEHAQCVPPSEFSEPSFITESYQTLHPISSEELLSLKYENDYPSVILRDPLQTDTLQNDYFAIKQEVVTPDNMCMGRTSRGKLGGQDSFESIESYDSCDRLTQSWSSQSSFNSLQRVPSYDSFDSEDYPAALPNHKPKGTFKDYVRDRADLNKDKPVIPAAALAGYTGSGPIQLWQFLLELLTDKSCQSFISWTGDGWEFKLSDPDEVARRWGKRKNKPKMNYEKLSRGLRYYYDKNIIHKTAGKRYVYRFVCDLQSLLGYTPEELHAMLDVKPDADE
Assay: DAPPL (digital affinity profiling via proximity ligation, sequencing)
Conditions: 10 mM Tris-HCl pH 7.5, 50 mM NaCl, 1 mM DTT, 4% glycerol, room temperature, 30 min; GST-TFs on glutathione beads, 16-mer random dsDNA library, 0.1% …; high values mean tight binding; double strand, one strand shown; scale: fold enrichment (6-mer frequency, TF over GST control)

| Sequence | binding signal |
| --- | --- |
| ACCCAT | 1.24 |
| GTGTCC | 1.12 |
| TAATAT | 1.28 |
| CATGGT | 1.19 |
| TCCAAC | 1.22 |
| CTCAGT | 1.02 |
| GAAGTC | 1.06 |
| AAACTG | 1.26 |
| CACAGC | 1.03 |
| CCGCAG | 1.01 |
| CCACCC | 1.33 |
| TCACAA | 1.14 |
| TCCTTC | 2.23 |
| TCTCCA | 1.56 |
| CTCCGT | 1.21 |
| AGATTT | 1.16 |
| CTGGCT | 1.26 |
| ACTTCT | 1.6 |
| TCAACT | 1.27 |
| CTTCTT | 1.51 |

Part of the list above in a different format.
Sequence,binding signal
CATGGT,1.19
TCCAAC,1.22
CTCAGT,1.02
GAAGTC,1.06
AAACTG,1.26
CACAGC,1.03
CCGCAG,1.01
CCACCC,1.33
TCACAA,1.14
TCCTTC,2.23
TCTCCA,1.56

Continuation:

| Sequence | binding signal |
| --- | --- |
| TTCCCG | 1.79 |
| TCTCAT | 1.4 |
| TGACCG | 1.47 |
| CTTACT | 1.27 |
| GCTGCG | 1.02 |
| ATCGCT | 1.08 |
| AATTCT | 1.31 |
| ACCGCA | 1.1 |
| TCGTCC | 1.08 |
| TGTCAT | 1.1 |
| AGTGGC | 1.28 |
| TATACG | 1.26 |
| TAACGG | 0.885 |
| ACCGCT | 1.01 |
| CCCAAC | 1.1 |
| CTACAT | 1.43 |
| CGACAA | 1.22 |
| AATGTA | 1.25 |
| ATGCCT | 1.29 |
| GTTTGA | 1.18 |
